{"source": "PubChem BioAssay AID256", "about": "(DTP/NCI, 2004)", "test_system": "CD2F1 mice, L1210 leukemia ip, survival T/C", "assay": "NCI In Vivo Anticancer Drug Screen. Data for tumor model L1210 Leukemia (intraperitoneal) in CD2F1 (CDF1) mice", "settings": "T/C endpoint: mean survival time, higher T/C = longer survival", "method": "The antitumor activity of compounds was measured in mice bearing transplantable tumors. Survival or tumor size were measured and the results are expressed as the measurement made in the treated group (T) divided by the measurement made in the vehicle treated control group (C). The tumor model used in this assay is L1210 Leukemia (intraperitoneal) in CD2F1 (CDF1) mice", "note": "The list is a part of this screen's results and no random one: its compounds were picked by chemical class. Other doses and runs of a compound may be missing. T/C is the treated group as % of the vehicle group. Where survival is the endpoint, the PubChem record calls one and a half times the control and up active, and a quarter to a half above the control has no call in these data; cut-offs in other NCI protocols can differ. Some entries show no survivor count and are marked so; the dose need not have been tolerated. Schedule codes are those of the source, taken here to give the interval after Q, in days (D) or hours (H), and the number of doses after X. Some schedules carry Z or #; the key to these is not given.", "data": [{"smiles": "O=S=NN(CCCl)CCCl", "values": [{"measurement": "T/C", "setting": "dose: 0.25 mg/kg/injection, schedule: Q04DX024 (ip), vehicle: saline", "result": "96 % of control [survivor count not shown]"}, {"measurement": "T/C", "setting": "dose: 0.25 mg/kg/injection, schedule: Q08DX016 (ip), vehicle: saline", "result": "88 % of control [survivor count not shown]"}, {"measurement": "T/C", "setting": "dose: 0.5 mg/kg/injection, schedule: Q01DX008 (ip), vehicle: saline", "result": "94 % of control [survivor count not shown]"}, {"measurement": "T/C", "setting": "dose: 0.5 mg/kg/injection, schedule: Q01DX Z (ip), vehicle: carboxymethylcellulose (CMC)", "result": "101 % of control [survivor count not shown]"}, {"measurement": "T/C", "setting": "dose: 0.5 mg/kg/injection, schedule: Q04DX024 (ip), vehicle: saline", "result": "100 % of control [survivor count not shown]"}, {"measurement": "T/C", "setting": "dose: 0.5 mg/kg/injection, schedule: Q08DX016 (ip), vehicle: saline", "result": "89 % of control [survivor count not shown]"}, {"measurement": "T/C", "setting": "dose: 1.0 mg/kg/injection, schedule: Q01DX008 (ip), vehicle: saline", "result": "98 % of control [survivor count not shown]"}, {"measurement": "T/C", "setting": "dose: 1.0 mg/kg/injection, schedule: Q01DX Z (ip), vehicle: carboxymethylcellulose (CMC)", "result": "102 % of control [survivor count not shown]"}, {"measurement": "T/C", "setting": "dose: 1.0 mg/kg/injection, schedule: Q04DX024 (ip), vehicle: saline", "result": "101 % of control [survivor count not shown]"}, {"measurement": "T/C", "setting": "dose: 1.0 mg/kg/injection, schedule: Q08DX016 (ip), vehicle: saline", "result": "91 % of control [survivor count not shown]"}, {"measurement": "T/C", "setting": "dose: 2.0 mg/kg/injection, schedule: Q01DX008 (ip), vehicle: saline", "result": "98 % of control [survivor count not shown]"}, {"measurement": "T/C", "setting": "dose: 2.0 mg/kg/injection, schedule: Q01DX009 (ip), vehicle: saline", "result": "108 % of control [survivor count not shown]"}, {"measurement": "T/C", "setting": "dose: 2.0 mg/kg/injection, schedule: Q01DX009 (sc), vehicle: saline", "result": "93 % of control [survivor count not shown]"}, {"measurement": "T/C", "setting": "dose: 2.0 mg/kg/injection, schedule: Q01DX Z (ip), vehicle: carboxymethylcellulose (CMC)", "result": "103 % of control [survivor count not shown]"}, {"measurement": "T/C", "setting": "dose: 2.0 mg/kg/injection, schedule: Q04DX003 (ip), vehicle: saline", "result": "96 % of control [survivor count not shown]"}, {"measurement": "T/C", "setting": "dose: 2.0 mg/kg/injection, schedule: Q04DX024 (ip), vehicle: saline", "result": "104 % of control [survivor count not shown]"}, {"measurement": "T/C", "setting": "dose: 2.0 mg/kg/injection, schedule: Q08DX002 (ip), vehicle: saline", "result": "94 % of control [survivor count not shown]"}, {"measurement": "T/C", "setting": "dose: 2.0 mg/kg/injection, schedule: Q08DX016 (ip), vehicle: saline", "result": "92 % of control [survivor count not shown]"}, {"measurement": "T/C", "setting": "dose: 4.0 mg/kg/injection, schedule: Q01DX001 (ip), vehicle: saline", "result": "102 % of control [survivor count not shown]"}, {"measurement": "T/C", "setting": "dose: 4.0 mg/kg/injection, schedule: Q01DX001 (sc), vehicle: saline", "result": "98 % of control [survivor count not shown]"}, {"measurement": "T/C", "setting": "dose: 4.0 mg/kg/injection, schedule: Q01DX008 (ip), vehicle: saline", "result": "113 % of control [survivor count not shown]"}, {"measurement": "T/C", "setting": "dose: 4.0 mg/kg/injection, schedule: Q01DX009 (ip), vehicle: saline", "result": "112 % of control [survivor count not shown]"}, {"measurement": "T/C", "setting": "dose: 4.0 mg/kg/injection, schedule: Q01DX009 (sc), vehicle: saline", "result": "103 % of control [survivor count not shown]"}, {"measurement": "T/C", "setting": "dose: 4.0 mg/kg/injection, schedule: Q01DX Z (ip), vehicle: carboxymethylcellulose (CMC)", "result": "110 % of control [survivor count not shown]"}, {"measurement": "T/C", "setting": "dose: 4.0 mg/kg/injection, schedule: Q04DX003 (ip), vehicle: saline", "result": "102 % of control [survivor count not shown]"}, {"measurement": "T/C", "setting": "dose: 4.0 mg/kg/injection, schedule: Q04DX024 (ip), vehicle: saline", "result": "114 % of control [survivor count not shown]"}, {"measurement": "T/C", "setting": "dose: 4.0 mg/kg/injection, schedule: Q08DX002 (ip), vehicle: saline", "result": "93 % of control [survivor count not shown]"}, {"measurement": "T/C", "setting": "dose: 4.0 mg/kg/injection, schedule: Q08DX016 (ip), vehicle: saline", "result": "97 % of control [survivor count not shown]"}, {"measurement": "T/C", "setting": "dose: 8.0 mg/kg/injection, schedule: Q01DX001 (ip), vehicle: saline", "result": "104 % of control [survivor count not shown]"}, {"measurement": "T/C", "setting": "dose: 8.0 mg/kg/injection, schedule: Q01DX001 (sc), vehicle: saline", "result": "93 % of control [survivor count not shown]"}, {"measurement": "T/C", "setting": "dose: 8.0 mg/kg/injection, schedule: Q01DX008 (ip), vehicle: saline", "result": "154 % of control [survivor count not shown]"}, {"measurement": "T/C", "setting": "dose: 8.0 mg/kg/injection, schedule: Q01DX009 (ip), vehicle: saline", "result": "125 % of control [survivor count not shown]"}, {"measurement": "T/C", "setting": "dose: 8.0 mg/kg/injection, schedule: Q01DX009 (oral), vehicle: saline", "result": "112 % of control [survivor count not shown]"}, {"measurement": "T/C", "setting": "dose: 8.0 mg/kg/injection, schedule: Q01DX009 (sc), vehicle: saline", "result": "121 % of control [survivor count not shown]"}, {"measurement": "T/C", "setting": "dose: 8.0 mg/kg/injection, schedule: Q04DX003 (ip), vehicle: saline", "result": "106 % of control [survivor count not shown]"}, {"measurement": "T/C", "setting": "dose: 8.0 mg/kg/injection, schedule: Q08DX002 (ip), vehicle: saline", "result": "101 % of control [survivor count not shown]"}, {"measurement": "T/C", "setting": "dose: 16.0 mg/kg/injection, schedule: Q01DX001 (ip), vehicle: saline", "result": "122 % of control [survivor count not shown]"}, {"measurement": "T/C", "setting": "dose: 16.0 mg/kg/injection, schedule: Q01DX001 (oral), vehicle: saline", "result": "117 % of control [survivor count not shown]"}, {"measurement": "T/C", "setting": "dose: 16.0 mg/kg/injection, schedule: Q01DX001 (sc), vehicle: saline", "result": "108 % of control [survivor count not shown]"}, {"measurement": "T/C", "setting": "dose: 16.0 mg/kg/injection, schedule: Q01DX009 (ip), vehicle: saline", "result": "112 % of control [survivor count not shown]"}, {"measurement": "T/C", "setting": "dose: 16.0 mg/kg/injection, schedule: Q01DX009 (oral), vehicle: saline", "result": "106 % of control [survivor count not shown]"}, {"measurement": "T/C", "setting": "dose: 16.0 mg/kg/injection, schedule: Q01DX009 (sc), vehicle: saline", "result": "105 % of control [survivor count not shown]"}, {"measurement": "T/C", "setting": "dose: 16.0 mg/kg/injection, schedule: Q04DX003 (ip), vehicle: saline", "result": "151 % of control [survivor count not shown]"}, {"measurement": "T/C", "setting": "dose: 16.0 mg/kg/injection, schedule: Q08DX002 (ip), vehicle: saline", "result": "132 % of control [survivor count not shown]"}, {"measurement": "T/C", "setting": "dose: 32.0 mg/kg/injection, schedule: Q01DX001 (ip), vehicle: saline", "result": "150 % of control [survivor count not shown]"}, {"measurement": "T/C", "setting": "dose: 32.0 mg/kg/injection, schedule: Q01DX001 (oral), vehicle: saline", "result": "140 % of control [survivor count not shown]"}, {"measurement": "T/C", "setting": "dose: 32.0 mg/kg/injection, schedule: Q01DX001 (sc), vehicle: saline", "result": "135 % of control [survivor count not shown]"}, {"measurement": "T/C", "setting": "dose: 32.0 mg/kg/injection, schedule: Q04DX003 (ip), vehicle: saline", "result": "102 % of control [survivor count not shown]"}, {"measurement": "T/C", "setting": "dose: 32.0 mg/kg/injection, schedule: Q08DX002 (ip), vehicle: saline", "result": "143 % of control [survivor count not shown]"}]}]}
